# Assay results: patent US5599937A, “Heteroaromatic quinuclidinenes, their use and preparation” (Pharmacia AB, priority 1992, dated 1997)
# At least one compound was matched to its structure with a doubt left.
# Biological target: muscarinic receptor subtypes in the cerebral cortex
# Test: Receptor binding assay: displacement of radiolabeled quinuclidinyl benzilate, cerebral cortex preparation
# Details: guinea pig cerebral cortex, read-out: affinity for muscarinic receptors, Cortex
smiles,measurement,value
"OC1(c2occc2Br)CN2CCC1CC2 (stereo not shown) [Example 7, 3-(3-Bromo-2-furyl)quinuclidin-3-ol]",Ki,4.9 µM
